Measured values: patent US20190351029A1, “MODULATION OF ISCHEMIC CELL BIOENERGETICS” (East Carolina University, priority 2017, published 2019)
At least one structure is not confirmed: it was looked up by name or label, or the drawing left a doubt.

System: hypoxic cell growth
Experiment: High-throughput hypoxic cell growth assays
Format: cell-based
From the text: In some embodiments, the presently disclosed subject matter relates to the discovery that genetically or pharmacologically enhancing glycolytic metabolism is protective against hypoxia/ischemia. Particularly, in accordance with some embodiments of the presently disclosed subject matter, it has been uncovered that elevated expression of the enzyme 6-phosphofructo-2-kinase/fructose-2,6-bisphosphatase 3 (PFKFB3), a potent allosteric activator of glycolysis, prevents ischemic injury and improves cell survival, while small molecular inhibition of PFKFB3 severely exacerbates ischemic injury. Thus, in some embodiments, the genetic target is PFKFB3. […] The compounds include, for example, metform in, phenformin, biperiden hydrochloride, clemastine, meclizine, berberine chloride, vinpocetine, pimozide, and mefloquine.
Many Food and Drug Administration (FDA) approved drugs and other chemical compounds have off-target effects on cellular metabolism, including the ability to enhance glycolytic metabolism. Cardiomyoblast (H9c2; obtained from ATCC) cells were treated with a number of compounds (berberine, clofoctol, phenformin, metformin, pentamidine, clemastine, pimoxide, bisacodyl, meclizine, mefloquine, papaverine, flunarizine, biperiden, vinpocetine, and niclosamide) at a final concentration of 1 μM prior to experimental hypoxia for 72 hours. […]

Compound: O=c1[nH]c2ccccc2n1C1CCN(CCCC(c2ccc(F)cc2)c2ccc(F)cc2)CC1 [pimozide]
- cell growth/survival in hypoxia: improve cell growth/survival in hypoxia
